Results: PMC8033513
Results are given in words; binding and its absence hold for the method and conditions named. Some binding calls cover weakened binding; strength is not graded here.

Sequences of proteins named here, by UniProt entry; tags and fusion partners are left off. Residues count along the entry.
UniProt P97798, residues 37-1136: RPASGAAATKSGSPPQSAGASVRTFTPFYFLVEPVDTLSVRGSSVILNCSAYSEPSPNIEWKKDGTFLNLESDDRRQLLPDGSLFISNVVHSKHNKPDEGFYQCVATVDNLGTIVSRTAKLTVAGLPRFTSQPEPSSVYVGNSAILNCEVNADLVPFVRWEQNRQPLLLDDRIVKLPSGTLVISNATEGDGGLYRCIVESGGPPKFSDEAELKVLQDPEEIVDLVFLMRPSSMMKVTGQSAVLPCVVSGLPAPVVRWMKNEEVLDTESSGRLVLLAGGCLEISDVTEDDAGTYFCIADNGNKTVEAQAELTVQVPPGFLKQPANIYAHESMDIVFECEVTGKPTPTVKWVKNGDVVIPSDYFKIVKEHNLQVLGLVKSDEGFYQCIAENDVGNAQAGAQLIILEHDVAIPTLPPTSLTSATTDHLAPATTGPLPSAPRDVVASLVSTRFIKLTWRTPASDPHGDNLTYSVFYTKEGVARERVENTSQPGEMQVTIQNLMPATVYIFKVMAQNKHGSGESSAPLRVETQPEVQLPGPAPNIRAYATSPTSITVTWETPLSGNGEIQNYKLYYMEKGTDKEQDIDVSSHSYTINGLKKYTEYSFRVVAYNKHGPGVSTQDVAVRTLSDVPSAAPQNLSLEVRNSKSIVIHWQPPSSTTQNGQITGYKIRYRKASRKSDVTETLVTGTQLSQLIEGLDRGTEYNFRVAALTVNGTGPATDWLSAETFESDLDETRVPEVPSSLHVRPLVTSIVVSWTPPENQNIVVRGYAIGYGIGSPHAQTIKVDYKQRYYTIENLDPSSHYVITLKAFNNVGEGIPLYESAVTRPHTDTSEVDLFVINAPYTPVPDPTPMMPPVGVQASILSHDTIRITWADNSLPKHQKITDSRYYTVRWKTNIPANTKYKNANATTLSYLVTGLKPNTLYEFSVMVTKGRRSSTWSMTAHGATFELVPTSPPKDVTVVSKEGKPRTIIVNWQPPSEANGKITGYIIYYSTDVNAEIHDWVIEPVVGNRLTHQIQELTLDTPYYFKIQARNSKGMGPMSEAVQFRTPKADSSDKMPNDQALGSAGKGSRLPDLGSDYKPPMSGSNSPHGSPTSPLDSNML
UniProt Q90923, residues 16-581: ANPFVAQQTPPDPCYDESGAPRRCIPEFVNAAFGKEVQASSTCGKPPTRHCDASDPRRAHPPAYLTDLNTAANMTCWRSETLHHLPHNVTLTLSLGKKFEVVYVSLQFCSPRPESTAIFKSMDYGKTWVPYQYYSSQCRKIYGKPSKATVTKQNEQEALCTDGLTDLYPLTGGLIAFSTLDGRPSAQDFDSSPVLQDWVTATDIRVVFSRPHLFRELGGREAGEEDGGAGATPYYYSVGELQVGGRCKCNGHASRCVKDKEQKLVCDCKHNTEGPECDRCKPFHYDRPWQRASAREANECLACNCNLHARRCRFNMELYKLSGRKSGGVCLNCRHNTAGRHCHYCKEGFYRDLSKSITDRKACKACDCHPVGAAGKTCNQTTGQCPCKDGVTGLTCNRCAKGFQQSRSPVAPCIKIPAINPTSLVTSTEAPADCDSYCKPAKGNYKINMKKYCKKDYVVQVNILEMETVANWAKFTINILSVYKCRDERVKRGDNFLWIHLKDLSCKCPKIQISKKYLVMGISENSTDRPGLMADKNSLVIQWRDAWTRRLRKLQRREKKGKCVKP

Target: extra‐cellular domain (ECD) of mouse Neogenin (mouse) (UniProt P97798)
Test: BLI; OctetRED96; ECDs of mNeogenin or mDCC coated on AHC biosensors, hNetrin-1 or chNetrin-2 in solution at 3.12-100 nM; 30°C, PBS, 0.02% Tween-20, 0.1% BSA with 1 µg/ml Dextran 5,000; 1:1 binding model; both purified

- binding: binds
Substance: chicken netrin‐2L (netrin‐2‐like) (from UniProt Q90923 16-581) (ligand)
